Laboratory results from the supplement of paper PMC10849652.
Some of the results follow. Residues, ends and D or L forms follow the SMILES beside them. *: point of attachment. Cbz = O=C(OCc1ccccc1)*

Sequences of proteins named here, by UniProt entry; tags and fusion partners are left off. A change or cut given only in a name is not applied to a line headed by its entry.
UniProt Q53S33: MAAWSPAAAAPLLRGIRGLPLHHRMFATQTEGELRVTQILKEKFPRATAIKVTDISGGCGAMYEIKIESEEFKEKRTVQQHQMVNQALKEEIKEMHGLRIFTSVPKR
UniProt P46379: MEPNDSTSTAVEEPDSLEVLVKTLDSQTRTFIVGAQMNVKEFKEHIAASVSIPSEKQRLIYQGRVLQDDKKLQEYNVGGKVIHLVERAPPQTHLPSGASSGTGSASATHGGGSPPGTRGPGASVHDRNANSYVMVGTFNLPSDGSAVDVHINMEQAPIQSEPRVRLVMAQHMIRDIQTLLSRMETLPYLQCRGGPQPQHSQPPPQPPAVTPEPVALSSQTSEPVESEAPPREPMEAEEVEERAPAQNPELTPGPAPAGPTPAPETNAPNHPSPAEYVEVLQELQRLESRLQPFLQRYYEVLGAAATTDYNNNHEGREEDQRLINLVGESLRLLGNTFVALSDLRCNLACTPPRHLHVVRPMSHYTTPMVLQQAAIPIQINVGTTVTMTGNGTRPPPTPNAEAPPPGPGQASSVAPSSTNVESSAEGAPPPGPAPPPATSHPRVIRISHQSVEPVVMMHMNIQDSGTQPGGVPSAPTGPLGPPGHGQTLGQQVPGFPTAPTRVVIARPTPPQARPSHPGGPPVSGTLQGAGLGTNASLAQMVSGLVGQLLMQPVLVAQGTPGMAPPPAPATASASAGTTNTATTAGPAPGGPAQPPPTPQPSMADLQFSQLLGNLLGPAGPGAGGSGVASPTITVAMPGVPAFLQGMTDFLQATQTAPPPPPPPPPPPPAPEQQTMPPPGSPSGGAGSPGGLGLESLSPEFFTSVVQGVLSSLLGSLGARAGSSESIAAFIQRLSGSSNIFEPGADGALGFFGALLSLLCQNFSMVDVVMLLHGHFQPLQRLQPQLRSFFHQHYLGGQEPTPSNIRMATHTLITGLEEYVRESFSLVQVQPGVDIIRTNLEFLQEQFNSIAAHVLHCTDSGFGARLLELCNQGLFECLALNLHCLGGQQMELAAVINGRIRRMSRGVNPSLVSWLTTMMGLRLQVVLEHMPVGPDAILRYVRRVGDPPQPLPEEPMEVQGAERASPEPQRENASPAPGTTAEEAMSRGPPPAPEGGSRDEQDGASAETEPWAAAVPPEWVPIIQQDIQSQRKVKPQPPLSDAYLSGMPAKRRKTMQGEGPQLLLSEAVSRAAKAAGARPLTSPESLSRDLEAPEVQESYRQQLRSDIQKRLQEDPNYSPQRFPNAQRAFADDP
UniProt Q9P287, whole entry, looked up: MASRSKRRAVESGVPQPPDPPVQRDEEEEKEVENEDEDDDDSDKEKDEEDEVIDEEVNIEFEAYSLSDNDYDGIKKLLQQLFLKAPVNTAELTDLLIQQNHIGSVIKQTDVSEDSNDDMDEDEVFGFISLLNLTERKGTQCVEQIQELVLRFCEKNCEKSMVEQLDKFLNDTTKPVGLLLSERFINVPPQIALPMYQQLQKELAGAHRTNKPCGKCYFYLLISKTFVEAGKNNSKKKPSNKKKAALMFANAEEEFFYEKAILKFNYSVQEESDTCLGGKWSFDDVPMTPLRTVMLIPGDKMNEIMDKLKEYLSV
UniProt Q8NFC6: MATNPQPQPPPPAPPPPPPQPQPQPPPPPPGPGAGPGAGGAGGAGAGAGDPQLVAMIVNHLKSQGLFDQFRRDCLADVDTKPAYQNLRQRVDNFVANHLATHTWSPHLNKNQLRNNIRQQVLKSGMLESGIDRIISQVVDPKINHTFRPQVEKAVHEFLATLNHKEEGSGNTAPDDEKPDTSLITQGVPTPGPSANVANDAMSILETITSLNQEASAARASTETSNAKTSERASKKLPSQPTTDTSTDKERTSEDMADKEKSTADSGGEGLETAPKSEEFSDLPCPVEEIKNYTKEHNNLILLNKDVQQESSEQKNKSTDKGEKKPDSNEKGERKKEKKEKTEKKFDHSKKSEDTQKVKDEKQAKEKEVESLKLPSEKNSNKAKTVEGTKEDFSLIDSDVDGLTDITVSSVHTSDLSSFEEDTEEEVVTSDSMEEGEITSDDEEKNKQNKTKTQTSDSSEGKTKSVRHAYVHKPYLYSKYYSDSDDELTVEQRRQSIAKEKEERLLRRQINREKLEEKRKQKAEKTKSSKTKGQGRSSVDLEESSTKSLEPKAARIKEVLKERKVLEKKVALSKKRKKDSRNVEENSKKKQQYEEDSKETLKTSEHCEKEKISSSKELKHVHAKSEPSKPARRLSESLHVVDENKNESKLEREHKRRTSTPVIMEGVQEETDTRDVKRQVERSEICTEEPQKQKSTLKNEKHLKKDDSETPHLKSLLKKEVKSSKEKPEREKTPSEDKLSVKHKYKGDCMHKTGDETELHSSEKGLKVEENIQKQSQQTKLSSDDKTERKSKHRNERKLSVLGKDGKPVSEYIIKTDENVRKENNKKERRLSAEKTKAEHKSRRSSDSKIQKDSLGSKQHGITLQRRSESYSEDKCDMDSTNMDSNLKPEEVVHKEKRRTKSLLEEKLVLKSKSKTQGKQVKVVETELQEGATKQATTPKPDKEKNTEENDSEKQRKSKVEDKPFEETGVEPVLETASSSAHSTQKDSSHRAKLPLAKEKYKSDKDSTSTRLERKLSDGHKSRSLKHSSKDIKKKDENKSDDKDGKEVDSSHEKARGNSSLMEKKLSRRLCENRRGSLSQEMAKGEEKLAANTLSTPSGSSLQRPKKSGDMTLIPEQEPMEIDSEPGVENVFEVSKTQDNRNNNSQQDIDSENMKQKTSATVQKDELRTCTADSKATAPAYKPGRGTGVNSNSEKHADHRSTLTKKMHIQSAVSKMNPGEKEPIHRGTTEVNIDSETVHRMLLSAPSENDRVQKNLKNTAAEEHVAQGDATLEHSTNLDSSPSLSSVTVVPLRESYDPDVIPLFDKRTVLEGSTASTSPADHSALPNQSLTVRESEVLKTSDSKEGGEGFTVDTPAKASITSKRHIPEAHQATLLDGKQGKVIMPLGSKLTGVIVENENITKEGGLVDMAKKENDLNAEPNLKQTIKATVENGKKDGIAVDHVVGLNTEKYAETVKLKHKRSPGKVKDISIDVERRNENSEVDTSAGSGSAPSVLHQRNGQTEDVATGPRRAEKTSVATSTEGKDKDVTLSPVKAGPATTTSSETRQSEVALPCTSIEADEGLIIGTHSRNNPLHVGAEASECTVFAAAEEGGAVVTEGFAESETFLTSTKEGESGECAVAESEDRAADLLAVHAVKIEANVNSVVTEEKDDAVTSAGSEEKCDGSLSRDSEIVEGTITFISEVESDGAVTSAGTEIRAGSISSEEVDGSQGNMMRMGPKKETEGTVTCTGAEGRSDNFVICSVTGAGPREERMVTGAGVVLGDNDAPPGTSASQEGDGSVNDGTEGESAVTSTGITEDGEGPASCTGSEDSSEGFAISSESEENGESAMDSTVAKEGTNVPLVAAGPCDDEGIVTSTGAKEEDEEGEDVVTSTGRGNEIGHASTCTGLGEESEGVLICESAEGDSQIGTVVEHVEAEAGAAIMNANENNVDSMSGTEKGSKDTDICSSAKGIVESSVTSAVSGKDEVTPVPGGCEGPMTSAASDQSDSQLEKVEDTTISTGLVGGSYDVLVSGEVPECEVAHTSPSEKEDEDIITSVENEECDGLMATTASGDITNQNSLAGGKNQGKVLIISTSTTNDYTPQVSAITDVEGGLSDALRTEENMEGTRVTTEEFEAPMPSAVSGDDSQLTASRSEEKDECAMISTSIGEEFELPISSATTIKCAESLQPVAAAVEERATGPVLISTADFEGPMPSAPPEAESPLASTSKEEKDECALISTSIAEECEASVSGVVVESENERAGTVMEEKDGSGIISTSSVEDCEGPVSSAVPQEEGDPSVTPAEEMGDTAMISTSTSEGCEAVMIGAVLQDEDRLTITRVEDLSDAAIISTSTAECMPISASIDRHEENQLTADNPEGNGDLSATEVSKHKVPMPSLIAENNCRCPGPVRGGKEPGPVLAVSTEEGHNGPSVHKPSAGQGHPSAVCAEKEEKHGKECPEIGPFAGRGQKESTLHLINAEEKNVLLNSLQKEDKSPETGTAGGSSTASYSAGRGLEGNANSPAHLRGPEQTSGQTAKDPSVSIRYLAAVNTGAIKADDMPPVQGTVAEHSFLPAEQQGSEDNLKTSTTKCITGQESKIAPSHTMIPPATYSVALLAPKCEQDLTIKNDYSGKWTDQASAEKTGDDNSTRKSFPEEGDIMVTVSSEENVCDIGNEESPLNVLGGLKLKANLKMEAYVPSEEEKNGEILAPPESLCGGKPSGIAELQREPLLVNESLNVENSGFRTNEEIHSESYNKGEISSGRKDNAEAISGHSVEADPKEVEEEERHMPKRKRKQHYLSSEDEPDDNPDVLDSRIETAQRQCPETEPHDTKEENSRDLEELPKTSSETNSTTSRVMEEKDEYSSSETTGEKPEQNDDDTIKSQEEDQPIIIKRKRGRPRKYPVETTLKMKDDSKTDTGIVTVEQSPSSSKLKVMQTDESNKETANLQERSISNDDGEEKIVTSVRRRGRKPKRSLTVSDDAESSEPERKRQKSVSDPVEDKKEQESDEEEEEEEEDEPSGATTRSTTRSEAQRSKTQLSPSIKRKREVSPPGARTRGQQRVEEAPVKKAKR
UniProt Q8WXE1: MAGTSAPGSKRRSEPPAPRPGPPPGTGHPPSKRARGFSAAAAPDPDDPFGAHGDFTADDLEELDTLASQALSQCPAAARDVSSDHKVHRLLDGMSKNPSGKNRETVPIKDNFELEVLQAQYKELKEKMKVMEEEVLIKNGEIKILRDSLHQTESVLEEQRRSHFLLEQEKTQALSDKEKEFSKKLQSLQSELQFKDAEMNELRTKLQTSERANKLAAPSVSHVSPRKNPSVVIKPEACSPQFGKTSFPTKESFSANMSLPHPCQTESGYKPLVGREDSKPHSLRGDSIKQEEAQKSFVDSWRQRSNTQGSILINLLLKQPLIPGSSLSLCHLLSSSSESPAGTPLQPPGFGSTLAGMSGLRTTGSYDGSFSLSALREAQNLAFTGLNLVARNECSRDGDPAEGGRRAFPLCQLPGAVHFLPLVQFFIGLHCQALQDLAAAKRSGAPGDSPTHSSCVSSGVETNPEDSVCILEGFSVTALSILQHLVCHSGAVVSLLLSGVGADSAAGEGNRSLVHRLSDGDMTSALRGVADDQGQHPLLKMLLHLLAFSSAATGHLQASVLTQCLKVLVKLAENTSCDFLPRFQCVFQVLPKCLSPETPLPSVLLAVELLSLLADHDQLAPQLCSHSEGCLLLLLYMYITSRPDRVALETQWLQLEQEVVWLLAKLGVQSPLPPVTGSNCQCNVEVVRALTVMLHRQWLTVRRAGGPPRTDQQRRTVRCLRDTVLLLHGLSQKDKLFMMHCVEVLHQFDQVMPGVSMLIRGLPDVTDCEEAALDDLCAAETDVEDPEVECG
UniProt Q86WA6: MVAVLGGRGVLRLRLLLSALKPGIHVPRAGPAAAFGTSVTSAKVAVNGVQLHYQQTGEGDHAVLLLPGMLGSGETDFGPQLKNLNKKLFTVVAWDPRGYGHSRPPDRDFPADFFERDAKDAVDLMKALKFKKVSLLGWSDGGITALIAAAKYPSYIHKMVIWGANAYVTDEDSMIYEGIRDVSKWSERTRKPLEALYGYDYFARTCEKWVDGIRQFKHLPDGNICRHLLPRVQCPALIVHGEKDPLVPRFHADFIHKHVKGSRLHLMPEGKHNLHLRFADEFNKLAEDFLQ
UniProt Q96B45: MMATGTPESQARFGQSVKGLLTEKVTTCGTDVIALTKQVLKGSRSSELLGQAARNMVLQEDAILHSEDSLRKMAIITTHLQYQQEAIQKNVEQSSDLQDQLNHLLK
UniProt P25440, whole entry, looked up: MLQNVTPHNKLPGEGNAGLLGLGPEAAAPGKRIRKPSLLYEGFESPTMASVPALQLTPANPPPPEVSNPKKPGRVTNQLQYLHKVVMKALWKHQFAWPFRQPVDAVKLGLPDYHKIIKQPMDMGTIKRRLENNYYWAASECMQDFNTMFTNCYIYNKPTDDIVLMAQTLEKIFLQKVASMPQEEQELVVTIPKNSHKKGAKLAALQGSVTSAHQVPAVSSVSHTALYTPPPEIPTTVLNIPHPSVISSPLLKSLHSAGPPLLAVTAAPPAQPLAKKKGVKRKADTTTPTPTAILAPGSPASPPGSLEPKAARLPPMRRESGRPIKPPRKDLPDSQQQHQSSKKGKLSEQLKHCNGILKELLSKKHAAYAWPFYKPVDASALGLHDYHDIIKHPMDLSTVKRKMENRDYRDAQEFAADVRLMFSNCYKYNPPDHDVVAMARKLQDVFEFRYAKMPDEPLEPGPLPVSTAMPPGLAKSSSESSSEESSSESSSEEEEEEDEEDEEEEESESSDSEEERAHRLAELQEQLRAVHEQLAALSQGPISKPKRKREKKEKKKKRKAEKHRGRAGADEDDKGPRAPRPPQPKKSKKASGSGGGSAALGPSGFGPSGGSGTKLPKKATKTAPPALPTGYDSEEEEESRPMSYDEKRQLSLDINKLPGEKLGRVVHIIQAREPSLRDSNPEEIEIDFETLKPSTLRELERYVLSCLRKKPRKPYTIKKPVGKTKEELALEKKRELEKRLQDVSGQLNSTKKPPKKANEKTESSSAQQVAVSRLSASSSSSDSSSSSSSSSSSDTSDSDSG

Key:
Test in all cases: log2 fold change, soluble protein after heating vs DMSO (PISA); higher = thermal stabilisation; K562 cells, 10 uM, 30 min; active = over 0.2 and 3.5 SD of the protein, either way, in both replicates (recomputed)
[1] = compound: C1COCCN1CCN2C3=CC=CC=C3N=C2NC(=O)C4=CC(=CC=C4)[N+](=O)[O-] [IRAK-1-4 Inhibitor I]
In short: (§1)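 For each measurement, 10 μM compound was applied for 30 min to K562 cells at 2×10^6 cells/mL. Aliquots were heated for 3 min across 48°C-58°C, pooled, and extracted in PBS with 0.5% NP-40 at 4°C; the supernatant after 21,000xg for 90 min was soluble protein. This was quantified by TMTpro 16plex LC-MS/MS with channel sums equalised, and thermal stability was reported relative to control samples from duplicates, on a log2 fold-change scale.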

[2] = compound: C=CC(=O)N1CCC[C@@H](n2nc(-c3ccc(Oc4ccccc4)cc3)c3c(N)ncnc32)C1 [ibrutinib]
In short: as §1

[3] = compound: CC(=O)c1cnc2ccc(-c3cc(Cl)c(O)c(Cl)c3)nc2c1N[C@H]1CC[C@H](CN(C)C)CC1
In short: as §1

[4] = compound: CC(C)(C)Cn1c(N)nc2ccc(-c3[nH]c(C(C)(C)C)nc3-c3ccc(F)cc3)nc21 [ralimetinib]
In short: as §1

[5] = compound: CC(C)(O)CC(=O)NCCn1ccc2ncnc(Nc3ccc(Oc4cccc(C(F)(F)F)c4)c(Cl)c3)c21
In short: as §1

[6] = compound: CC(C)C1=C2N=C(C=C(N2N=C1)NCC3=CC=CC=C3)NCCCCCCN
In short: as §1

[7] = compound: CC(C)C[C@@H](C=O)NC(=O)[C@H](CC(C)C)NC(=O)[C@H](CC(C)C)NC(=O)OCc1ccccc1
In short: as §1

[8] = compound: CC(C)N(C[C@H]1O[C@@H](n2cnc3c(N)ncnc32)[C@H](O)[C@@H]1O)[C@H]1C[C@@H](CCc2nc3cc(C(C)(C)C)ccc3[nH]2)C1 [pinometostat]
In short: as §1

[9] = compound: CC1=C(C(CC(=O)N1)C2=CC=C(C=C2)C(F)(F)F)C(=O)NC3=C(C=C4C(=C3)C=NN4)F
In short: as §1

[10] = compound: CC1=C(C2=C(C=C1)C(=O)C3=CC=CC=C3N2CCCN)C
In short: as §1

Measured: log2 fold change

BOLA3 (UniProt Q53S33)
inactive: [1] 0.034 | [2] -0.001 | [3] 0.01 | [4] -0.085 | [5] -0.027 | [6] 0.014 | [7] -0.013 | [8] -0.036 | [9] 0.022 | [10] -0.009

BCAS2 (UniProt O75934)
inactive: [1] 0.033 | [2] -0.008 | [3] 0.21 | [4] 0.058 | [5] -0.053 | [6] 0.094 | [7] -0.023 | [8] -0.001 | [9] -0.014 | [10] 0.163

BAG6 isoform 3 (UniProt P46379)
inactive: [1] -0.016 | [2] -0.02 | [3] 0.02 | [4] 0.026 | [5] -0.034 | [6] -0.097 | [7] 0.127 | [8] 0.041 | [9] -0.021 | [10] -0.01

BCCIP (UniProt Q9P287)
inactive: [1] -0.025 | [2] -0.063 | [3] -0.06 | [4] -0.005 | [5] 0.002 | [6] 0.035 | [7] 0.015 | [8] 0.073
active: [10] 0.255

B3GNTL1 (UniProt Q67FW5)
inactive: [1] 0.007 | [2] -0.052 | [3] 0.007 | [4] 0.207 | [5] -0.15 | [6] 0.027 | [7] 0.205 | [8] -0.046 | [9] 0.031 | [10] 0.061

BCL10 (UniProt O95999)
inactive: [1] -0.015 | [2] 0 | [3] -0.026 | [4] -0.028 | [5] -0.035 | [6] -0.08 | [7] 0.071 | [8] 0.118 | [9] 0.082 | [10] -0.013

BCL2L2 isoform 2 (UniProt Q92843)
inactive: [1] -0.107 | [2] 0.07 | [3] -0.02 | [4] 0.068 | [5] 0.132 | [6] 0.162 | [7] -0.006 | [8] 0.017 | [9] 0.004 | [10] 0.055

BABAM1 (UniProt Q9NWV8)
inactive: [1] -0.013 | [2] -0.015 | [3] 0.08 | [4] -0.001 | [5] 0.008 | [6] -0.014 | [7] 0.072 | [8] -0.025 | [9] 0.025 | [10] -0.041

BAX isoform 2 (UniProt Q07812)
inactive: [1] -0.007 | [2] -0.033 | [3] -0.023 | [4] -0.015 | [5] 0.033 | [6] 0.058 | [7] 0.001 | [8] -0.073 | [9] 0.001 | [10] 0.118

BLOC1S3 (UniProt Q6QNY0)
inactive: [1] 0.018 | [2] -0.037 | [4] -0.033 | [5] -0.058 | [6] 0.005 | [7] -0.045 | [8] -0.041 | [10] 0.076
active: [3] 0.427

BCL2L13 (UniProt Q9BXK5)
inactive: [1] 0.001 | [2] -0.009 | [3] -0.013 | [4] -0.057 | [5] 0 | [6] -0.044 | [7] -0.003 | [8] -0.002 | [9] -0.001 | [10] -0.068

BOD1L1 (UniProt Q8NFC6)
inactive: [1] -0.01 | [2] -0.012 | [3] -0.204 | [4] 0.037 | [5] 0.056 | [6] 0.024 | [7] 0.044 | [8] 0.05 | [9] -0.009 | [10] 0.158

B4GALT3 (UniProt O60512)
inactive: [1] -0.033 | [2] 0.012 | [3] -0.009 | [4] -0.096 | [5] 0.036 | [6] -0.078 | [7] 0.125 | [8] 0.011 | [9] -0.093 | [10] -0.02

ATRIP (UniProt Q8WXE1)
inactive: [1] -0.05 | [2] -0.087 | [3] -0.063 | [4] -0.055 | [5] 0.003 | [6] -0.017 | [7] -0.064 | [8] 0.087 | [9] 0.06 | [10] 0.064

BROX (UniProt Q5VW32)
inactive: [1] -0.034 | [2] -0.048 | [3] 0.008 | [4] -0.024 | [5] -0.109 | [6] -0.036 | [7] 0.001 | [8] -0.027 | [9] -0.011 | [10] 0

BAIAP2L1 (UniProt Q9UHR4)
inactive: [1] 0.048 | [2] -0.003 | [3] -0.052 | [4] -0.058 | [5] -0.008 | [6] 0.038 | [7] 0.033 | [8] -0.007 | [9] 0.007 | [10] 0.029

BIRC6 (UniProt Q9NR09)
inactive: [1] -0.003 | [2] -0.005 | [3] 0.045 | [4] 0.031 | [5] -0.07 | [6] -0.066 | [7] 0.047 | [8] 0.076 | [9] 0.003 | [10] 0.026

BRIX1 (UniProt Q8TDN6)
inactive: [1] -0.1 | [2] -0.011 | [3] 0.021 | [4] 0.133 | [5] 0.091 | [6] 0.137 | [7] 0.041 | [8] 0.361
active: [10] -1.43

ATR (UniProt Q13535)
inactive: [1] 0.093 | [2] 0.031 | [3] 0.021 | [4] -0.03 | [5] -0.077 | [6] 0.046 | [7] 0.037 | [8] 0.101 | [10] 0.109

ATXN3 isoform 1 (UniProt P54252)
inactive: [1] -0.031 | [2] 0.028 | [3] 0.065 | [4] 0.018 | [6] -0.314 | [7] 0.234 | [8] 0.021 | [10] 0.016

BCCIP isoform 2 (UniProt Q9P287)
inactive: [1] 0.013 | [2] -0.025 | [3] 0.008 | [4] -0.048 | [5] 0.012 | [6] 0.008 | [7] -0.012 | [8] 0.029 | [10] 0.077

Two neighbouring records out of the list so far, for reference:
BAIAP2L1 (UniProt Q9UHR4)
inactive: [1] 0.048 | [2] -0.003 | [3] -0.052 | [4] -0.058 | [5] -0.008 | [6] 0.038 | [7] 0.033 | [8] -0.007 | [9] 0.007 | [10] 0.029

BIRC6 (UniProt Q9NR09)
inactive: [1] -0.003 | [2] -0.005 | [3] 0.045 | [4] 0.031 | [5] -0.07 | [6] -0.066 | [7] 0.047 | [8] 0.076 | [9] 0.003 | [10] 0.026

Additional results

B4GALT7 (UniProt Q9UBV7)
inactive: [1] -0.046 | [2] 0.131 | [3] 0.069 | [4] 0.088 | [5] -0.014 | [6] -0.012 | [7] -0.004 | [8] -0.033 | [10] 0.066

BCR (UniProt P11274)
inactive: [1] -0.175 | [2] 0.101 | [4] 0.123 | [5] -0.047 | [6] -0.505 | [7] 0.198 | [8] 0.362 | [10] 0.067

BPHL (UniProt Q86WA6)
inactive: [1] 0.009 | [2] -0.062 | [3] -0.034 | [4] -0.045 | [5] -0.023 | [6] 0.123 | [7] 0.071 | [8] 0.061 | [10] -0.244

BRCA1 isoform 7 (UniProt P38398)
inactive: [1] 0.02 | [4] -0.029 | [6] 0.127 | [7] 0.164 | [8] 0.015

BORCS7 (UniProt Q96B45)
inactive: [1] -0.008 | [2] -0.014 | [3] -0.165 | [6] 0.093 | [8] -0.067 | [9] 0.089 | [10] -0.007

BRD2 isoform 2 (UniProt P25440)
inactive: [1] 0.091 | [2] -0.164 | [3] -0.63 | [6] 0.042 | [8] 0.038 | [10] -0.117
